Laboratory results from patent US20150266969A1.
These are yes or no findings as the source states them, for the method shown. Some binding calls cover weakened binding; strength is not graded here.

Molecular target: pDisplay-ECD1 on HEK293 cells (UniProt P09619)
Experiment: flow cytometry on HEK293 cells (FIG. 24: PEP2-2-1)

B1: PEP2-2-1 (format not stated) (VHH)
VHH: EVQLLESGGGLVQPGGSLRLSCAASGFTFRNHDMGWVRQAPGKGLEWVSAISGSGGSTYYANSVKGRFTISRDNSKNTLYLQMNSLRAEDTAVYYCAEPKPMDTEFDYRSPGTLVTVSS
  binding: binds
